SMILES strings stand for the structures. The list shows a part of the results. Repeats in this data set agree poorly, so a single value says little.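 A first-round screen of about ten thousand compounds sought those raising reporter output, using human embryonic kidney cells briefly transfected with a plasmid carrying a Renilla luciferase gene driven by the HSV-TK promoter.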

This test concerns HEK 293FT. The test is described as follows: log relative Renilla luciferase luminescence (reporter expression vs reference, reference not stated) (log (base not stated)); higher = higher recombinant reporter expression. The note with it: 10 µM; time after transfection 48 h. How it is done: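 HEK 293FT cells transiently transfected with pRL-TK (Renilla luciferase) were treated with compounds at 10 uM and luminescence was read about 42 h later. Values are log relative Renilla luminescence (log base and reference not stated). Single-pass screen; ICCB Known Bioactives library.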
With `CO[C@@]12[C@H](COC(N)=O)C3=C(C(=O)C(C)=C(N)C3=O)N1C[C@@H]1N[C@@H]12` [Mitomycin C], the log is -0.00123. The value for `Cc1cnc(C(=O)NCCc2ccc(S(=O)(=O)NC(=O)NC3CCCCC3)cc2)cn1` [Glipizide] was 0.0444; that for `CC(N/C(=N\C#N)Nc1ccncc1)C(C)(C)C` (stereo not given) [Pinacidil] was 0.166. As to `O=C1Nc2ccc(I)cc2/C1=C/c1cc(Br)c(O)c(Br)c1`, the log is -0.113.

As for `Nc1ccc2c3c(cccc13)C(=O)NC2=O` [Amino-1,8-naphthalimide [4-Amino-1,8-naphthalimide]], the log was -0.692. For the compound `CC1=NN(c2ccccc2)C(=O)C1`, the log worked out at 0.257. The value for `Cn1cnc2c(NCc3ccccc3)nc(NCCO)nc21` [Olomoucine] was -0.531; that for `CC/C=C\C/C=C\C/C=C\C/C=C\C/C=C\CCCCCC(=O)O` [Docosapentaenoic acid] was -0.374; that for `CCCCOc1cc(CC2CNC(=O)N2)ccc1OC` (stereo not given) was -0.13. Regarding `COc1ccc([C@H]2Sc3ccccc3N(CCN(C)C)C(=O)[C@H]2OC(C)=O)cc1` [L-cis-Diltiazem], the log is 0.0263. The value for `CC(C)[C@H](NC(=O)CNC(=O)OC(C)(C)C)C(=O)N[C@H](C=O)C(C)C` was 0.206; that for `CC/C=C\C/C=C\C/C=C\CCCCCCCCCC(=O)O` [Eicosatrienoic acid (20:3 n-3)] was -0.191.

`CCCCC[C@H](O)/C=C/[C@H]1[C@H](O)CC(=O)[C@@H]1CCCCCCC(=O)O` [Prostaglandin E1]: the log was -0.117. The value for `CCCCCC(O)C=CC1C(O)CC(O)C1CCCCCCC(=O)O` (stereo not given) [Prostaglandin F1a] was 0.0123. For the compound `CCCCC/C=C\C/C=C\CC1OC1C/C=C\CCCC(=O)O` (stereo not given) [8,9-Epoxyeicosatrienoic acid], the log is -0.0206. Regarding `CC(=O)OCOC(c1ccc2ccccc2c1)P(=O)(OCOC(C)=O)OCOC(C)=O` (stereo not given), the log worked out at 0.331. For `CC(C)c1cccc(=O)c(O)c1` [Hinokitiol], the log was 0.243.

With `CCCCC[C@H](O)/C=C/[C@H]1C(=O)C[C@H](O)[C@@H]1C/C=C\CCCC(=O)O` [Prostaglandin D2], the log was -0.0601. The value for `Cc1ccc(S(=O)(=O)NC(=O)NN2CCCCCC2)cc1` [Tolazamide] was 0.0597; that for `Fc1ccc(C(c2ccc(F)cc2)N2CCN(C/C=C/c3ccccc3)CC2)cc1` [Flunarizine] was 0.0506; that for `O=c1c(-c2ccc(O)cc2)coc2cc(O)cc(O)c12` [Genistein] was 0.374. The value for `COc1cc2ncc(-c3ccccc3)nc2cc1OC` was -0.368; that for `CCCC[C@@H](C)/C=C(C)/C=C(\C)C(=O)NC1=C[C@@](O)(/C=C/C=C/C=C/C(=O)NC2=C(O)CCC2=O)[C@@H]2O[C@@H]2C1=O` [Manumycin A] was 0.276. The value for `CCCCC/C=C\C=C\[C@@H](O)CCCCCCCC(=O)O` was -0.0126; that for `C=CC[C@@H]1/C=C(\C)C[C@H](C)C[C@H](OC)[C@H]2O[C@@](O)(C(=O)C(=O)N3CCCC[C@H]3C(=O)O[C@H](/C(C)=C/[C@@H]3CC[C@@H](O)[C@H](OC)C3)[C@H](C)[C@@H](O)CC1=O)[C@H](C)C[C@@H]2OC` was 0.316; that for `COCc1cc(O)c(O)c(O)c1-c1c(COC)cc(O)c(O)c1O` was 0.292. In the case of `CC(C)C[C@H](NC(=O)[C@@H](O)[C@H](N)Cc1ccccc1)C(=O)O` [Bestatin], the log was determined as 0.254.

On to `CCCCC/C=C\C/C=C\C/C=C\C/C=C\CCCC(=O)O[C@@H](CO)COC(=O)CCCCCCCCCCCCCCCCC` [1-Stearoyl-2-arachidonoyl-glycerol], for which the log came out at 0.142. The value for `CC1=Nc2ccc(Cl)cc2S(=O)(=O)N1` [Diazoxide] was 0.485; that for `CCCCCCCCCC(=O)OCC(CO)OC(=O)CCCCCCCCC` (stereo not given) [1,2-Didecanoyl-glycerol (10:0)] was -0.0601. The value for `C[C@@H](N)[C@H]1CC[C@H](C(=O)Nc2ccncc2)CC1` was -0.169; that for `CCCCCCCCCCCCC/C=C/[C@@H](O)[C@H](CO)NCCCCCCCC` [C8 Ceramine] was 0.0437. The value for `CC(COc1ccccc1)N(CCCl)Cc1ccccc1` (stereo not given) [Phenoxybenzamine] was -0.253; that for `COc1ccc(CCCOC(Cn2ccnc2)c2ccc(OC)cc2)cc1` (stereo not given) was 0.184. Turning to `C[S+]([O-])c1ccc(-c2nc(-c3ccc(F)cc3)c(-c3ccncc3)[nH]2)cc1` (stereo not given), the log is -0.202.

Regarding `C=C1/C(=C\C=C2/CCC[C@]3(C)[C@@H]([C@H](C)CCCC(C)(C)O)CC[C@@H]23)C[C@@H](O)C[C@@H]1O` [1,25-Dihydroxyvitamin D3], the log was -0.495. The value for `CCCCC[C@H](O)/C=C/C=C\C=C\C=C\[C@@H](O)[C@@H](O)CCCC(=O)O` [Lipoxin A4] was -0.136; that for `CCCCCCCCCCCCC/C=C/[C@@H](O)[C@H](CO)NC(=O)CCCCCCCCCCCCCCC` [C16 Ceramide] was -0.115; that for `C/C=C/C/C=C/CCC(=O)[C@H]1O[C@H]1C(N)=O` [Cerulenin] was -0.185. The value for `CC1(C)CCC(C)(C)c2cc(C(=O)Nc3ccc(C(=O)O)cc3)ccc21` was 0.0343.

Source of the values: the supplement of paper PMC7024190.
